Experimental findings from paper PMC7005485 are described below.

No constants are given. Whether binding was seen depends on the method and setting. In cells and extracts the contact can be indirect. Binding calls can cover weak binding; strength is not graded here. Tags and fused reporters may be left off the sequences shown.

The assay deals with NanoLuc-tagged HBc (hepatitis B virus). Nature of the assay: FRET or BRET; NanoBRET screen in living HEK293 cells: NanoLuc-fused HBc and 150 HaloTag-fused phosphatases co-transfected (HaloTag:NanoLuc vectors 100:1), read 48 h after transfection; BRET ratio >0.2 as threshold. Background: In BRET a luciferase serves as donor, and the signal depends on an acceptor being close.

B1: HaloTag-PDP2 (pyruvate dehydrogenase phosphatase catalytic subunit 2) (enzyme, UniProt Q9P2J9 67-529)
chain: STEEDDFHLQLSPEQINEVLRAGETTHKILDLESRVPNSVLRFESNQLAANSPVEDRRGVASCLQTNGLMFGIFDGHGGHACAQAVSERLFYYVAVSLMSHQTLEHMEGAMESMKPLLPILHWLKHPGDSIYKDVTSVHLDHLRVYWQELLDLHMEMGLSIEEALMYSFQRLDSDISLEIQAPLEDEVTRNLSLQVAFSGATACMAHVDGIHLHVANAGDCRAILGVQEDNGMWSCLPLTRDHNAWNQAELSRLKREHPESEDRTIIMEDRLLGVLIPCRAFGDVQLKWSKELQRSILERGFNTEALNIYQFTPPHYYTPPYLTAEPEVTYHRLRPQDKFLVLASDGLWDMLSNEDVVRLVVGHLAEADWHKTDLAQRPANLGLMQSLLLQRKASGLHEADQNAATRLIRHAIGNNEYGEMEAERLAAMLTLPEDLARMYRDDITVTVVYFNSESIGAYYKGG
For the molecule B1, the binding entry was “binds”.
